Measurements taken from publication PMC7588069.
Results are given in words; binding and its absence hold for the method and conditions named. Binding seen in cells or lysates may run through a third protein. Some results given as binding are weak or reduced against the parent protein; the word gives no strength. Where a sequence is shown, tags or fusion partners need not be part of it.

By UniProt entry, the sequences of proteins in these tests, tags left out.
UniProt P37231: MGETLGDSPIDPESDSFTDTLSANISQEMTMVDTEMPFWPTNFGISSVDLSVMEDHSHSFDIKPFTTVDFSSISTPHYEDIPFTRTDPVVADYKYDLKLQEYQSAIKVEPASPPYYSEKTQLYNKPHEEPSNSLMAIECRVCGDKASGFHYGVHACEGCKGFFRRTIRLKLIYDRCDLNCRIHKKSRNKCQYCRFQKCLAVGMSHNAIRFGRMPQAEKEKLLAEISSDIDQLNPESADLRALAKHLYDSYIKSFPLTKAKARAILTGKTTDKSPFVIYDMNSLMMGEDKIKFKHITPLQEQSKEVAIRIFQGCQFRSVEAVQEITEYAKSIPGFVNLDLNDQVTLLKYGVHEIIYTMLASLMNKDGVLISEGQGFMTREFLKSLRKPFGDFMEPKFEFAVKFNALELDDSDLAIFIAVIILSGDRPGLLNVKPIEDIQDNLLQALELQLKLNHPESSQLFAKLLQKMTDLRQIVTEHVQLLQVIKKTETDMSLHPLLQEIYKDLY

T1: GST fusion with the receptor interaction domains (RID) of NCoRω (amino acids 1817–2453) (UniProt Q60974)
T1 sequence: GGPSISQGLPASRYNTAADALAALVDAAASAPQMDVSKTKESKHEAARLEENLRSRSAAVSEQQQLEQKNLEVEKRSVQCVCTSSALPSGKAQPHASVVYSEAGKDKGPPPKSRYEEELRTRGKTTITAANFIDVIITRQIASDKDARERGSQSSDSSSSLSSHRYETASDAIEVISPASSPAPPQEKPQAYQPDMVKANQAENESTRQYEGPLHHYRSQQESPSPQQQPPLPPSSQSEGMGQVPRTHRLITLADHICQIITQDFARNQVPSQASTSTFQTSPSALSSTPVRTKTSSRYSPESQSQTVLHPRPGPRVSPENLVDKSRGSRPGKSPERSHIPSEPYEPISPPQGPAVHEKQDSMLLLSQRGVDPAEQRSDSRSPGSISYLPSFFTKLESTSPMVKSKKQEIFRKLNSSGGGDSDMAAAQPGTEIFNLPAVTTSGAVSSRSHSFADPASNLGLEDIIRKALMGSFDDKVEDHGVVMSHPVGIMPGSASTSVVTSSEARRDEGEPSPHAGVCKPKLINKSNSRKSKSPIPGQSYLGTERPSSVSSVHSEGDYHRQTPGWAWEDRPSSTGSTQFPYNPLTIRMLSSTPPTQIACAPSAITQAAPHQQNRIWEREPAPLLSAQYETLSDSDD


biological target: T1, GST fusion with the receptor interaction domains (RID) of NCoRω (amino acids 1817–2453); test: pull-down; GST fusion protein (~50 ng) immobilised on ~10 μl glutathione-agarose; 35S-radiolabeled in vitro translated nuclear receptor (2–5 μl TnT product) in 120 μl HEMG buffer (4 mM HEPES pH 7.8, 0.2 mM EDTA, 5 mM MgCl2, 10% glycerol, 100 mM KCl, 0.1% Nonidet P-40, 1.5 mM DTT) with 10 mg/ml BSA; 3 hr at 4°C; eluted with 10 mM glutathione, SDS-PAGE, PhosphorImager; only the target purified

Molecule | binding
Peroxisome Proliferator Activated Receptor γ (from UniProt P37231 1-505) | binds
Peroxisome Proliferator Activated Receptor α (receptor, UniProt Q07869 1-468, 35S-radiolabeled) MVDTESPLCPLSPLEAGDLESPLSEEFLQEMGNIQEISQSIGEDSSGSFGFTEYQYLGSCPGSDGSVITDTLSPASSPSSVTYPVVPGSVDESPSGALNIECRICGDKASGYHYGVHACEGCKGFFRRTIRLKLVYDKCDRSCKIQKKNRNKCQYCRFHKCLSVGMSHNAIRFGRMPRSEKAKLKAEILTCEHDIEDSETADLKSLAKRIYEAYLKNFNMNKVKARVILSGKASNNPPFVIHDMETLCMAEKTLVAKLVANGIQNKEAEVRIFHCCQCTSVETVTELTEFAKAIPGFANLDLNDQVTLLKYGVYEAIFAMLSSVMNKDGMLVAYGNGFITREFLKSLRKPFCDIMEPKFDFAMKFNALELDDSDISLFVAAIICCGDRPGLLNVGHIEKMQEGIVHVLRLHLQSNHPDDIFLFPKLLQKMADLRQLVTEHAQLVQIIKKTESDAALHPLLQEIYRDMY | binds

Now from value to molecule:

binding | Molecule
binds | Liver X Receptor α (receptor, UniProt Q13133 1-447, 35S-radiolabeled) MSLWLGAPVPDIPPDSAVELWKPGAQDASSQAQGGSSCILREEARMPHSAGGTAGVGLEAAEPTALLTRAEPPSEPTEIRPQKRKKGPAPKMLGNELCSVCGDKASGFHYNVLSCEGCKGFFRRSVIKGAHYICHSGGHCPMDTYMRRKCQECRLRKCRQAGMREECVLSEEQIRLKKLKRQEEEQAHATSLPPRASSPPQILPQLSPEQLGMIEKLVAAQQQCNRRSFSDRLRVTPWPMAPDPHSREARQQRFAHFTELAIVSVQEIVDFAKQLPGFLQLSREDQIALLKTSAIEVMLLETSRRYNPGSESITFLKDFSYNREDFAKAGLQVEFINPIFEFSRAMNELQLNDAEFALLIAISIFSADRPNVQDQLQVERLQHTYVEALHAYVSIHHPHDRLMFPRMLMKLVSLRTLSSVHSEQVFALRLQDKKLPPLLSEIWDVHE
binds | Farnesoid X Receptor (receptor, UniProt Q96RI1 1-486, 35S-radiolabeled) MVMQFQGLENPIQISPHCSCTPSGFFMEMMSMKPAKGVLTEQVAGPLGQNLEVEPYSQYSNVQFPQVQPQISSSSYYSNLGFYPQQPEEWYSPGIYELRRMPAETLYQGETEVAEMPVTKKPRMGASAGRIKGDELCVVCGDRASGYHYNALTCEGCKGFFRRSITKNAVYKCKNGGNCVMDMYMRRKCQECRLRKCKEMGMLAECMYTGLLTEIQCKSKRLRKNVKQHADQTVNEDSEGRDLRQVTSTTKSCREKTELTPDQQTLLHFIMDSYNKQRMPQEITNKILKEEFSAEENFLILTEMATNHVQVLVEFTKKLPGFQTLDHEDQIALLKGSAVEAMFLRSAEIFNKKLPSGHSDLLEERIRNSGISDEYITPMFSFYKSIGELKMTQEEYALLTAIVILSPDRQYIKDREAVEKLQEPLLDVLQKLCKIHQPENPQHFACLLGRLTELRTFNHHHAEMLMSWRVNDHKFTPLLCEIWDVQ
